Results taken from article PMC11663349.
No constants are given. Whether binding was seen depends on the method and setting. In cells and extracts the contact can be indirect. Some binding calls cover weakened binding; strength is not graded here.

Chains of the proteins cited; added tags and fusions are not shown.
UniProt Q8N6T7: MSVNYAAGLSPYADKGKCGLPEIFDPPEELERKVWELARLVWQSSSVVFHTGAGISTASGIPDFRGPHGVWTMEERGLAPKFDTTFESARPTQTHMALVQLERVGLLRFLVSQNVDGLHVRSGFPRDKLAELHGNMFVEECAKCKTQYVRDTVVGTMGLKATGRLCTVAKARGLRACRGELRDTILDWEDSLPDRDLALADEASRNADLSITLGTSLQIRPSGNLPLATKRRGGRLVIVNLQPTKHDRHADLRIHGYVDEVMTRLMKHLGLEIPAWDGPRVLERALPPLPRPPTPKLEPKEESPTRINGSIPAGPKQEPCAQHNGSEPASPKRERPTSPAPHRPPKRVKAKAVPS

Biological target: T1, UHRF1 (Ubiquitin-like, containing PHD and RING Finger domains 1), endogenous in T24 (human (endogenous in T24)) (UniProt Q96T88)
T1 sequence: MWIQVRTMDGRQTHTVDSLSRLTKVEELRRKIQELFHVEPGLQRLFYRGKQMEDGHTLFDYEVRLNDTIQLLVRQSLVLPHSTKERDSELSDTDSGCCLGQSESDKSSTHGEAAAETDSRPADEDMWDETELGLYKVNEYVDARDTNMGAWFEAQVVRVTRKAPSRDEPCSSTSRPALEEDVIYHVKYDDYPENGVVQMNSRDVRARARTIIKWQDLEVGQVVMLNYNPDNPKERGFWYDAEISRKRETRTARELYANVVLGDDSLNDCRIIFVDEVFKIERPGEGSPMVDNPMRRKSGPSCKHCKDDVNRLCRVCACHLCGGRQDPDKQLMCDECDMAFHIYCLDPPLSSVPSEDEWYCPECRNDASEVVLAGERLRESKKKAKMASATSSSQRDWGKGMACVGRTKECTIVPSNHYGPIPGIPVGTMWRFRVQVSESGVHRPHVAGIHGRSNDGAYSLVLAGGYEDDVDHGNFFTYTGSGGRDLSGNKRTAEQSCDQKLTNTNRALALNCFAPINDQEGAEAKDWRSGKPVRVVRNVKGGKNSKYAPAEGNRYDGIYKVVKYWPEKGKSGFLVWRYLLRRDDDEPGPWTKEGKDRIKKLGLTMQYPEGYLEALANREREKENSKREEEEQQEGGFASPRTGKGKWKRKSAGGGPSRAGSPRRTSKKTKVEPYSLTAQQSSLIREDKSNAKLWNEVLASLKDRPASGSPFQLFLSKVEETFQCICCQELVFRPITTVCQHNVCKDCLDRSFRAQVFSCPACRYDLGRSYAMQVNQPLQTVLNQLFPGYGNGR
Assay: co-IP; endogenous proteins, T24 cell lysate in 200 mM KCl, 20 mM Tris-HCl pH 7.9, 5 mM MgCl2, 10% glycerol, 0.2 mM EDTA, 0.1% NP-40; antibodies or control IgG overnight at 4 °C; western blot; both directions

binding: binds
Substance: Sirtuin-6 (SIRT6), endogenous (from UniProt Q8N6T7 1-355)
